Measured values from the supplement of paper PMC10849652.
Some of the results follow.

Sequences of proteins named here, by UniProt entry; tags and fusion partners are left off. A change or cut given only in a name is not applied to a line headed by its entry.
UniProt P60900, whole entry, looked up: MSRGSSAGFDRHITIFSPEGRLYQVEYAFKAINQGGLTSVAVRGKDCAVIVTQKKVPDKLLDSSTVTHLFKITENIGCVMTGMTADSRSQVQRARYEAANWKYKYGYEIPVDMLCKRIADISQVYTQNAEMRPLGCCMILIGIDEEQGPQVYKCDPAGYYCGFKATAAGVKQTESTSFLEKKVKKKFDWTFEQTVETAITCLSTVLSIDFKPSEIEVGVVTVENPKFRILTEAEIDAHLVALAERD
UniProt O60256: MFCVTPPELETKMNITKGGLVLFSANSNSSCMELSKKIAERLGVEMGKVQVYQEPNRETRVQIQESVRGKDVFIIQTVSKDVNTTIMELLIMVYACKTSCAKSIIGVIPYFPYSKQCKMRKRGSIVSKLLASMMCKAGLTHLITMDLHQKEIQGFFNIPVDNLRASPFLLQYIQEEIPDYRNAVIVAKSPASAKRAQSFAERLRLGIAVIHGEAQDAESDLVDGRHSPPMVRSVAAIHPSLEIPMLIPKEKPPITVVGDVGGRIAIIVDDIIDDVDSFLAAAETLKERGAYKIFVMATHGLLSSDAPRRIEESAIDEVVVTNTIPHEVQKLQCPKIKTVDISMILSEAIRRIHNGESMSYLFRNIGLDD
UniProt P25788: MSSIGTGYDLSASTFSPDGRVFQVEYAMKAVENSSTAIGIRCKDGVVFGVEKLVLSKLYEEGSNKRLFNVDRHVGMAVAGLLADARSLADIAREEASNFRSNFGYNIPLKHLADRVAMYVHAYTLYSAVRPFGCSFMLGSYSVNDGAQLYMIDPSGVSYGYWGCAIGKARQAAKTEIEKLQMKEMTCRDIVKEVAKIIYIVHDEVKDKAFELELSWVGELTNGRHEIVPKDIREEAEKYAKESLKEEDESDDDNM
UniProt P18031: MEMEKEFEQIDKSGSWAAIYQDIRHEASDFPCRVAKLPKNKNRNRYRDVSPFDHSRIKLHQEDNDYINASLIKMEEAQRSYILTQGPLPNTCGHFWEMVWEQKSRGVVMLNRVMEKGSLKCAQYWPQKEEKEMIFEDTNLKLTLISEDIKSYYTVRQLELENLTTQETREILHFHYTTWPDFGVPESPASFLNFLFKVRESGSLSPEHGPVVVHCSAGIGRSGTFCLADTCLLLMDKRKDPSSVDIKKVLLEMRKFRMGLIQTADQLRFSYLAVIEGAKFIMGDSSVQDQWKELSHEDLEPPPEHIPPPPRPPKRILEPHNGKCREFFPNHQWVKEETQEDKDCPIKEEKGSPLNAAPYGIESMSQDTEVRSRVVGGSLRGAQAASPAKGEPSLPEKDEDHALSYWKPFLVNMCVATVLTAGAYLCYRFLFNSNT
UniProt O43242, whole entry, looked up: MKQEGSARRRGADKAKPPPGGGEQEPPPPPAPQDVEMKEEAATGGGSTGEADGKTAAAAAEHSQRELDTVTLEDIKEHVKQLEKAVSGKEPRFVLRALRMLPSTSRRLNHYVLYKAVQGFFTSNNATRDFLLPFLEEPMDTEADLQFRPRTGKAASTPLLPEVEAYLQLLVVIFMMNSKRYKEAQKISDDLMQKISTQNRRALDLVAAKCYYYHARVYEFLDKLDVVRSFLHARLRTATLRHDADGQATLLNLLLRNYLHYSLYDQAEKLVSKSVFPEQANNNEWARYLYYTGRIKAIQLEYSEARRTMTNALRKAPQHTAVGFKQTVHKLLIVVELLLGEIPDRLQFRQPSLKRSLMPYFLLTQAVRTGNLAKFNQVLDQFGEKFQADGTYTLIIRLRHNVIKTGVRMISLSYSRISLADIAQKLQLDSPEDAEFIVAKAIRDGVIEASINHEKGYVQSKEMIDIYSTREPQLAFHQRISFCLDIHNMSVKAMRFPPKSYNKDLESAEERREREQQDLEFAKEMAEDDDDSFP
UniProt Q8TB72: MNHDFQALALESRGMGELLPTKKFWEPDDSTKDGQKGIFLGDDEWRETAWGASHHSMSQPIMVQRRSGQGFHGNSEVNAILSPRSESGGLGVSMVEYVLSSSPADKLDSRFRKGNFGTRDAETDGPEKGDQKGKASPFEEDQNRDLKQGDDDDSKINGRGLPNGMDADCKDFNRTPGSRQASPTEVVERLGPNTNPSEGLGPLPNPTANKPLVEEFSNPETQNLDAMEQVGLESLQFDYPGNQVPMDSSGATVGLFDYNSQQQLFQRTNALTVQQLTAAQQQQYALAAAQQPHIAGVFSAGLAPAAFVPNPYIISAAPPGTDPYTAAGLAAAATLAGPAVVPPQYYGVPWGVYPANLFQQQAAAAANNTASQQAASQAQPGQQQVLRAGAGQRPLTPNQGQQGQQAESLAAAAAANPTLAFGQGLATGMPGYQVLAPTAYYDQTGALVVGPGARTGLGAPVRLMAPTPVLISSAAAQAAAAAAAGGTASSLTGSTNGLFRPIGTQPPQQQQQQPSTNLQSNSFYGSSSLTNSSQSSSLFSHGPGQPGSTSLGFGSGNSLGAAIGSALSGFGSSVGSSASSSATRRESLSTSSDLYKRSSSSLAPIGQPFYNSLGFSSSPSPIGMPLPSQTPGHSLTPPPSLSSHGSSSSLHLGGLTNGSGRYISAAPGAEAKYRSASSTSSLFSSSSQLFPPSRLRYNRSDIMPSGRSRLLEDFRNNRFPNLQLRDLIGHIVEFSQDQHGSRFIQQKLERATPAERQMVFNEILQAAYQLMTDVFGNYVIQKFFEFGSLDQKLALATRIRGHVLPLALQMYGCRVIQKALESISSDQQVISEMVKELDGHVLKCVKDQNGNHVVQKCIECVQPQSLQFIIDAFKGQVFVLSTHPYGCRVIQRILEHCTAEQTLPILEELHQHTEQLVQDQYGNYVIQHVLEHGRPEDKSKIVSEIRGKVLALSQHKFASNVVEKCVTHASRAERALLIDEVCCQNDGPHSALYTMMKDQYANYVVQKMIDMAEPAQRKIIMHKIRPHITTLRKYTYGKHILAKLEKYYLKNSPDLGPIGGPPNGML
UniProt O75832: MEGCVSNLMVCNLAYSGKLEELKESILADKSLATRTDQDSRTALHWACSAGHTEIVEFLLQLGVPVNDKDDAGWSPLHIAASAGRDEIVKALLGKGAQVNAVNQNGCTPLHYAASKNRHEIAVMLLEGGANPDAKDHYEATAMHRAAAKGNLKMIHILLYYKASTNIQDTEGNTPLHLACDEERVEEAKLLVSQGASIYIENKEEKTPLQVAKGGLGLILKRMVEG
UniProt Q8NDX1: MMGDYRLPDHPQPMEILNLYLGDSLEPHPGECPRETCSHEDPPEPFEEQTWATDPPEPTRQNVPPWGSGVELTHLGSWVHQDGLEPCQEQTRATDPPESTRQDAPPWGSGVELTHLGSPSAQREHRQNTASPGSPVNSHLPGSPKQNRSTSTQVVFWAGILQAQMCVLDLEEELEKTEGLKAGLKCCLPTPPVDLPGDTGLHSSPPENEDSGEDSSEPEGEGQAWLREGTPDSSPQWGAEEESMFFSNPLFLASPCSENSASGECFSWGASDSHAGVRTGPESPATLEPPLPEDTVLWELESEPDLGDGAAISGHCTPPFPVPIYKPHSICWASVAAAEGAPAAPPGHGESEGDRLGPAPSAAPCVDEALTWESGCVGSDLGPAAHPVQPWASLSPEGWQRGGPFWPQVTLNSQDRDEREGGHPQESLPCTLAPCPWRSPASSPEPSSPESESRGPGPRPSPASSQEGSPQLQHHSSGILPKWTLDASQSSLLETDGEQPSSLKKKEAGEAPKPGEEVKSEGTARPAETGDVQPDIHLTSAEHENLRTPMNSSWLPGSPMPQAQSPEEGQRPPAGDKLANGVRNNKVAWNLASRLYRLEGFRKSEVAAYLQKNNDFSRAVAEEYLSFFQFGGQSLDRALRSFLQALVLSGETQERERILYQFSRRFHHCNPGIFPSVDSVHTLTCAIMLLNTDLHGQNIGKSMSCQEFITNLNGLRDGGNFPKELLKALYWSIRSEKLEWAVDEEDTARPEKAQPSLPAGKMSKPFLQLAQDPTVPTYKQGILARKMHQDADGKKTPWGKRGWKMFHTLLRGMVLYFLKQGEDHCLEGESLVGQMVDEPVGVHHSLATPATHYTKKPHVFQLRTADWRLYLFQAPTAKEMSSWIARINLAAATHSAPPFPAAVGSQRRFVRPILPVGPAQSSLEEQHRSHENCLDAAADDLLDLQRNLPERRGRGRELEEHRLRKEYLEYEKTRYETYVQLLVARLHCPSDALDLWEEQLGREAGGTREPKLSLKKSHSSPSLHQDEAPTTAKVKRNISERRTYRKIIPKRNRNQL
UniProt P06454: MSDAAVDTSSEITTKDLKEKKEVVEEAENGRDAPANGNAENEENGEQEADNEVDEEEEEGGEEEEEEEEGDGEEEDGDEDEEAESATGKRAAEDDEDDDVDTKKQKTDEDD
UniProt Q99952: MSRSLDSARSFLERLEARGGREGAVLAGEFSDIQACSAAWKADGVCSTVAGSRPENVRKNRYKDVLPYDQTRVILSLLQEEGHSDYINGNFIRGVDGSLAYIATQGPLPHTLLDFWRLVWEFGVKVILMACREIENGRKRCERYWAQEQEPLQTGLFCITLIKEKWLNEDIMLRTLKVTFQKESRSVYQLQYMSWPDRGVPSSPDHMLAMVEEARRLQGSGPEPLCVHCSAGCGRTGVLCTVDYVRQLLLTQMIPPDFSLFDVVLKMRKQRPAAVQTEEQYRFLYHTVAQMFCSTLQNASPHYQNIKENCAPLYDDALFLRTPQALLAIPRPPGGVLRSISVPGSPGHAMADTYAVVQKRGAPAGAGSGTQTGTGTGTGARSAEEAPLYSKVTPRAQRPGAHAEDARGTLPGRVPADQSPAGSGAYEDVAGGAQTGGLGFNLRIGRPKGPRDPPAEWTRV

What was measured:
Assay in all cases: log2 fold change, soluble protein after heating vs DMSO (PISA); higher = thermal stabilisation; K562 lysate, 10 uM; active = over 0.2 and 3.5 SD of the protein, either way, in both replicates (recomputed)
[1] = compound: C1=CC=C(C=C1)[C@H](COC2=CC3=C(C=C2)NC(=O)N3)NC(=O)C4=CC=CN(C4=O)CC5=CC(=C(C=C5)F)F
Method in brief: (§1)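 Pellets of K562 cells were dounce-homogenised in PBS pH 7.4 with 1 mM MgCl2, and the crude extract was held at 1 mg/mL protein for a 30 min treatment with 10 μM compound. Aliquots were heated for 3 min over 48°C-58°C and pooled before NP-40 was added to 0.5% at 4°C. The supernatant from 21,000xg for 90 min was quantified by TMTpro 16plex LC-MS/MS with channel sums equalised. Values are reported from duplicates as log-two fold change in thermal stability relative to solvent controls.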

[2] = compound: CC1=C(SC2=C1C(=N[C@H](C3=NN=C(N32)C)CC(=O)N)C4=CC=C(C=C4)Cl)C
Method in brief: as §1

[3] = compound: CC1=C2C(=CC=C1)N=C(N(C2=O)C3=CC=CC=C3C)CN4C=NC5=C(N=CN=C54)N
Method in brief: as §1

[4] = compound: Cc1sc2c(c1C)C(c1ccc(Cl)cc1)=N[C@@H](CC(=O)OC(C)(C)C)c1nnc(C)n1-2
Method in brief: as §1

[5] = compound: c1ccc([C@@H]2C[C@H]2NC2CCNCC2)cc1
Method in brief: as §1

Measured: log2 fold change

PSMA6 (UniProt P60900)
inactive: [1] 0.03 | [2] 0.007 | [3] -0.048 | [4] 0.013 | [5] -0.002

PRPSAP2 (UniProt O60256)
inactive: [1] 0.017 | [2] 0.04 | [3] -0.004 | [4] -0.007 | [5] -0.073

PSMA3 (UniProt P25788)
inactive: [1] 0.026 | [2] 0 | [3] -0.016 | [4] -0.034 | [5] 0.04

PTPN1 (UniProt P18031)
inactive: [1] -0.006 | [2] 0.008 | [3] 0.01 | [4] -0.026 | [5] 0.005

PSMD3 (UniProt O43242)
inactive: [1] -0.012 | [2] 0.017 | [3] 0.01 | [4] 0.012 | [5] 0.042

PUM2 (UniProt Q8TB72)
inactive: [1] -0.049 | [2] 0.027 | [3] -0.021 | [4] 0.021 | [5] 0.109

Two entries drawn at random from the list so far, as already listed:
PSMA3 (UniProt P25788)
inactive: [1] 0.026 | [2] 0 | [3] -0.016 | [4] -0.034 | [5] 0.04

PUM2 (UniProt Q8TB72)
inactive: [1] -0.049 | [2] 0.027 | [3] -0.021 | [4] 0.021 | [5] 0.109

Next entries follow:

PSMD10 (UniProt O75832)
inactive: [1] -0.029 | [2] 0.017 | [3] -0.001 | [4] -0.008 | [5] -0.035

PSD4 (UniProt Q8NDX1)
inactive: [1] -0.043 | [2] 0.014 | [3] 0 | [4] 0.009 | [5] 0.01

PTMA isoform 2 (UniProt P06454)
inactive: [1] 0.098 | [2] -0.016

PTPN18 (UniProt Q99952)
inactive: [1] 0.009 | [2] -0.087 | [3] -0.013 | [4] 0.057
